{"sequences": {"note": "Chains of the proteins cited; added tags and fusions are not shown.", "UniProt Q8NER1, whole entry, looked up": "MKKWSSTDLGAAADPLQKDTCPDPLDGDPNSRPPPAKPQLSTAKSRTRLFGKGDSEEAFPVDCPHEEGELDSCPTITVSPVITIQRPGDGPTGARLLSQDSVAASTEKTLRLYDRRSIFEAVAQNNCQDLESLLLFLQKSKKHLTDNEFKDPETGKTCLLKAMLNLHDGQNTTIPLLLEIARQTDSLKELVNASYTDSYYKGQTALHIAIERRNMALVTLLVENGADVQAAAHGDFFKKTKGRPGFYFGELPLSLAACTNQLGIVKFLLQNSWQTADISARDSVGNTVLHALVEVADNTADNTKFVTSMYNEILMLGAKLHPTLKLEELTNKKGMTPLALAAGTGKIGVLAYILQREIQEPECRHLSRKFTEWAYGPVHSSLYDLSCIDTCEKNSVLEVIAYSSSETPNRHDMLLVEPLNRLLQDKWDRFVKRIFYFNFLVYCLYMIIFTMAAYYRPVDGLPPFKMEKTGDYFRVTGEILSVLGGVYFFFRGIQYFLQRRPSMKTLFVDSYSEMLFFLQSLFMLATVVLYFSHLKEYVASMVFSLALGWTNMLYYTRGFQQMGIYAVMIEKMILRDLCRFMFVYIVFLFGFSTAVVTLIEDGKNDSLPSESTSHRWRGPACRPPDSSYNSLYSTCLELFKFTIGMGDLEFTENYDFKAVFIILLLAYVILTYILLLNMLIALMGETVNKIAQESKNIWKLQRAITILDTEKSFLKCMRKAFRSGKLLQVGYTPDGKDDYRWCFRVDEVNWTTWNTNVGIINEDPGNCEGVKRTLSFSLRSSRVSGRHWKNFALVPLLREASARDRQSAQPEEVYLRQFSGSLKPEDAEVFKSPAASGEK"}, "source": "PubChem BioAssay AID540275", "about": "(National Center for Advancing Translational Sciences (NCATS), 2011)", "note": "Out of some 320,000 compounds screened, about 620 (0.19%) were called active. Inconclusive means that the source gave no clear call. Such entries were picked first, then a sample of the others. No stated cut-off is given here; in the data, active means activation above about 80%; inconclusive means between about 30% and that limit; inactive means weaker than that."}
{"molecular_target": "Transient receptor potential cation channel subfamily V member 1 (Homo sapiens) (UniProt Q8NER1)", "assay": "HTS Assay for Compounds that Act as Agonists of the Vanilloid Receptor 1; further: 0% is about no effect", "settings": "TRPV1-expressing cells, Fluo-8 calcium influx, agonist mode; at 8.33 µM, hits give high values", "in_short": "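Cells expressing TRPV1 were dye-loaded with Fluo-8 and read kinetically: 10 s baseline, 3 min after compound (agonist portion), then 2 min after EC20 capsaicin (allosteric enhancer portion). Calcium-bound dye fluorescence at 480/520 nm.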"}
{"smiles": "CCOC12NC(=O)CC(=O)N1C(c1ccccc1)=CS2", "note": "(stereo not drawn)", "activation": "inconclusive: 33.3%"}
{"smiles": "O=C1CCN(Cc2ccccc2)CCN1[C@H](COc1ccccc1)c1ccccc1", "activation": "inconclusive: 46.6%"}
{"smiles": "O=C(NC1CCCCC1)c1ccc(N2CCOCC2)c([N+](=O)[O-])c1", "activation": "inconclusive: 38%"}
{"smiles": "CC(C)c1cc(-c2cc(C(=O)NCc3ccccc3)on2)nc(NCC2CC2)n1", "activation": "inconclusive: 41.2%"}
{"smiles": "Cc1cc(SCC(=O)Nc2ccc(O)cc2)n2nc(C)c(-c3ccccc3)c2n1", "activation": "inconclusive: 40.1%"}
{"smiles": "Cc1c(NC(=O)NC2CCCCC2)cccc1[N+](=O)[O-]", "activation": "inconclusive: 44.4%"}
{"smiles": "Cc1nnc(SC(C)C(=O)Nc2ccc(Cl)cn2)n1Cc1ccccc1", "note": "(stereo not drawn)", "activation": "inactive: -2.42%"}
{"smiles": "CC1CC(C)CN(c2oc(-c3ccccc3F)nc2C#N)C1", "note": "(stereo not drawn)", "activation": "inconclusive: 33.3%"}
{"smiles": "Cc1cc(OCc2cc(C(=O)N(C)C3CCOCC3)no2)cc(C)c1Cl", "activation": "inconclusive: 55.2%"}
{"smiles": "Cn1c(/C(C#N)=C/c2cccc(O)c2)nc2ccccc21", "activation": "inactive: -1.87%"}
{"smiles": "CCOc1ccc(NC(=O)CN(C)Cc2ccc3c(c2)OCO3)cc1S(=O)(=O)N1CCCC1", "activation": "inactive: 10.4%"}
{"smiles": "CC(C)(C)c1ccc(NC(=O)N2CCCN(c3ccc([N+](=O)[O-])cn3)CC2)cc1", "activation": "active: 92.3%"}
{"smiles": "O=C(CSCc1ccccc1Br)Nc1ccccc1", "activation": "inconclusive: 42%"}
{"smiles": "O=C(Cc1ccccc1)N/N=C/c1cc(Br)cc(Cl)c1O", "activation": "inconclusive: 32.4%"}
{"smiles": "CC12COC3(C(=O)Nc4ccc5ccccc5c4)CC1CCC32C", "note": "(stereo not drawn)", "activation": "inconclusive: 39.8%"}
{"smiles": "Cc1nn(-c2ccccn2)c2nc(-c3cccs3)cc(C(=O)NCc3ccco3)c12", "activation": "active: 82.7%"}
{"smiles": "COc1ccc(CCC(=O)Nc2ccc(N3CCOCC3)cc2)cc1", "activation": "inconclusive: 38.8%"}
{"smiles": "CC(C)c1ccc(N2C=Nc3ccc(C(C)C)cc3C2)cc1", "activation": "inconclusive: 55.3%"}
{"smiles": "CCc1c(C)nc2c(-c3ccccc3)c(C)nn2c1Nc1ccc(NC(C)=O)cc1", "activation": "inconclusive: 33%"}
{"smiles": "CCc1nnc(N/N=C/c2ccc(-c3ccc([N+](=O)[O-])cc3)o2)n1N", "activation": "inactive: 10.6%"}
{"smiles": "N#C/C(=C/c1ccc(N2CCOCC2)o1)C(=O)NC1CCCCC1", "activation": "inconclusive: 32.4%"}
{"smiles": "Cc1nc2nc(NCc3cccs3)nn2c(C)c1Cl", "activation": "inactive: -1.68%"}
{"smiles": "CN(CC(=O)NC(=O)Nc1ccccc1F)Cc1ccccc1", "activation": "inconclusive: 43.5%"}
{"smiles": "CC(C)c1ccc(OCC(=O)NC(C)c2ccccc2)cc1", "note": "(stereo not drawn)", "activation": "inconclusive: 61.7%"}
{"smiles": "Oc1c(N=Nc2ccccc2)sc2ccccc12", "activation": "inconclusive: 37.4%"}
{"smiles": "CCc1cc(SC#N)cc(C)c1NC(=O)CCl", "activation": "inactive: -0.861%"}
{"smiles": "COc1ccccc1OCCNC(=O)Cc1ccc(Cl)c(Cl)c1", "activation": "inconclusive: 47.1%"}
{"smiles": "Cc1ccc(CN(C)C(=O)CC2C(=O)NCCN2CC2CCCCC2)cc1", "note": "(stereo not drawn)", "activation": "inactive: 10.7%"}
{"smiles": "N#Cc1ccc(CN2CCN(C(=O)c3cc(C4CC4)nn3-c3ccccc3)CC2)cc1", "activation": "inconclusive: 40.5%"}
{"smiles": "COc1cc(COCC(O)CN2CCN(CCN3C(=O)c4cccc5cccc(c45)C3=O)CC2)cc(OC)c1OC", "note": "(stereo not drawn)", "activation": "inactive: 10.7%"}
{"smiles": "CCOc1ccc(CN(C)C(=O)c2ccc(S(=O)(=O)N(C)c3ccccc3OC)cc2)cc1", "activation": "inconclusive: 31.2%"}
{"smiles": "COc1ccc(CC(=O)NCCCc2ccccc2)cc1OC", "activation": "active: 105%"}
{"smiles": "CC(C)(C)C(=O)/C(C#N)=C/c1cccs1", "activation": "inactive: 13.1%"}
{"smiles": "COc1cccc(CNC(=O)c2cc(COc3c(F)cccc3F)on2)c1", "activation": "inconclusive: 33.5%"}
{"smiles": "CCOC(=O)/C(=C/c1c(C)n(C)c2ccc([N+](=O)[O-])cc12)C(C)=O", "activation": "inactive: 6.58%"}
{"smiles": "O=C(NNC(=O)c1ccc2c(=O)n3c(nc2c1)CCC3)c1cccc(Cl)c1", "activation": "inactive: 0.5%"}
{"smiles": "C=CCOc1c(Cl)cc(CNc2ccc3[nH]c(=O)[nH]c3c2)cc1OC", "activation": "inconclusive: 57.7%"}
{"smiles": "O=C(O)CC/C(=C\\c1ccc(N2CCOCC2)c([N+](=O)[O-])c1)c1nc2ccccc2s1", "activation": "inactive: 1.62%"}
{"smiles": "CCOC(=O)c1sc(NC(=O)c2ccc(S(=O)(=O)N(C)C)cc2)cc1C", "activation": "inactive: 0.658%"}
{"smiles": "CCCCc1ccc(NC(=O)C2CCCO2)cc1", "note": "(stereo not drawn)", "activation": "inconclusive: 51%"}
{"smiles": "O=C(Nc1ccc(Cl)cc1)C1=Cc2cc(Cl)ccc2OC1", "activation": "inconclusive: 72.4%"}
{"smiles": "O=C(Nc1ccc(F)cc1F)c1ccc2ncsc2c1", "activation": "inconclusive: 69.3%"}
{"smiles": "CC(=O)c1cccc(NC(=O)C2C(c3ccccc3)C2(Cl)Cl)c1", "note": "(stereo not drawn)", "activation": "inconclusive: 62.2%"}
{"smiles": "Cc1cc(C)c(C(=O)c2ccc(C(=O)N3CCCCC3)cc2)c(C)c1", "activation": "inconclusive: 30.1%"}
{"smiles": "CC1(C)NC(=O)N(CCCCOc2ccc(Cl)cc2C=O)C1=O", "activation": "inconclusive: 39.6%"}
{"smiles": "OCCCc1nc2n(n1)C(c1ccccc1)C=C(c1ccc(F)cc1)N2", "note": "(stereo not drawn)", "activation": "inactive: -2.86%"}
{"smiles": "COc1ccc(CNS(=O)(=O)c2ccc3c(c2)N(C)CCO3)cc1", "activation": "inactive: 8.51%"}
{"smiles": "NC(=O)COc1ccc(NC(=O)CC23CC4CC(CC(C4)C2)C3)cc1", "activation": "inconclusive: 35.3%"}
{"smiles": "COc1ccc(Cl)c2sc(N3CCN(C(=O)c4ccco4)CC3)nc12", "activation": "inconclusive: 34.8%"}
{"smiles": "Cc1ccc(NC2CCCN(C(=O)c3cc(C(C)C)[nH]n3)C2)cc1C", "note": "(stereo not drawn)", "activation": "inactive: -4.35%"}
{"smiles": "Cc1cc(C(=O)COc2ccc(-c3nnco3)cc2)c(C)n1Cc1ccccc1", "activation": "inconclusive: 61.7%"}
{"smiles": "COCCNC(=O)C(C#N)c1nc2ccccc2nc1N1CCCCCC1", "note": "(stereo not drawn)", "activation": "inconclusive: 41.3%"}
{"smiles": "COc1ccc(C2CC(=O)Nc3cc(C)c(C)cc32)c(OC)c1OC", "note": "(stereo not drawn)", "activation": "inconclusive: 36.1%"}
{"smiles": "CCOC(=O)N1CCN(c2ccc(F)cc2[N+](=O)[O-])CC1", "activation": "inconclusive: 36.7%"}
{"smiles": "COc1ccccc1CNC(=O)C1CCCN(c2cnccn2)C1", "note": "(stereo not drawn)", "activation": "inactive: 16.9%"}
{"smiles": "COCCCN(C(=O)c1ccco1)c1nc(-c2ccc(OC)cc2)cs1", "activation": "inactive: 3.91%"}
{"smiles": "CCOc1ccc(NC(=O)N(Cc2ccc(C)cc2)Cc2ccccn2)cc1", "activation": "inconclusive: 48%"}
{"smiles": "COc1ccc(C(=O)NC2CCCc3c2cnn3-c2cccc(C)c2C)o1", "note": "(stereo not drawn)", "activation": "inactive: 5.19%"}
